Results deposited as PubChem BioAssay AID1508597 (Cure First, 2020)

Assay: 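Knock-downs altering ovarian cancer cell survival with or without PARP inhibitor rucaparib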 (primary screen)
System: human ovarian carcinoma lines grown from tumours: OCI-P5x (papillary serous) and OCI-C5x (clear cell)
Reagents: siRNA pool against human genes, 1.25 pmol siRNA per well
Time to read-out: 72 h or 96 h, depending on the cell culture
Challenge: rucaparib 20 µM (about IC30) or vehicle, present until read-out
Rucaparib or vehicle: Vehicle
Cell line: OCI-P5x (serous)
Measured: 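Luminescent ATP-based viability assay read 72 or 96 h after transfection, depending on culture, given as normalised percent viability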
Direction: viability, normalised: higher = more viable cells remaining
Hit rule: 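a well counts as a hit if its normalised viability is under 80 percent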
Calls: active = viability under 80%; inactive = viability 80% or more
Shown is an unselected part of the about 2,100 reagents, under one of the conditions tested. 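Calls flag viability under 80% in either arm, not effects specific to rucaparib; the reference for percent is not stated.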 Unmarked entries are inactive. The record does not give: the 100% reference.

| target | technical replicate | viability, normalised (%) |
| --- | --- | --- |
| ZRANB3 (GeneID 84083) | 1 | 78.1 (active) |
| ZRANB3 (GeneID 84083) | 2 | 80.5 |
| ZRANB3 (GeneID 84083) | 3 | 106 |
| RAC1 (GeneID 5879) | 1 | 45.6 (active) |
| RAC1 (GeneID 5879) | 2 | 58.8 (active) |
| RAC1 (GeneID 5879) | 3 | 41.5 (active) |
| UBR5 (GeneID 51366) | 1 | 78.5 (active) |
| UBR5 (GeneID 51366) | 2 | 71.5 (active) |
| UBR5 (GeneID 51366) | 3 | 87.5 |
| PRKAA2 (GeneID 5563) | 1 | 80.5 |
| PRKAA2 (GeneID 5563) | 2 | 79.4 (active) |
| PRKAA2 (GeneID 5563) | 3 | 81.3 |
| PRKCD (GeneID 5580) | 1 | 64 (active) |
| PRKCD (GeneID 5580) | 2 | 54.9 (active) |
| PRKCD (GeneID 5580) | 3 | 67.1 (active) |
| ESR1 (GeneID 2099) | 1 | 71.3 (active) |
| ESR1 (GeneID 2099) | 2 | 49.2 (active) |
| ESR1 (GeneID 2099) | 3 | 71.1 (active) |
| FAM131C (GeneID 348487) | 1 | 79.4 (active) |
| FAM131C (GeneID 348487) | 2 | 91.7 |
| FAM131C (GeneID 348487) | 3 | 73 (active) |
| POU5F1B (GeneID 5462) | 1 | 65.3 (active) |
| POU5F1B (GeneID 5462) | 2 | 57.5 (active) |
| POU5F1B (GeneID 5462) | 3 | 62.8 (active) |

Looked up above:
Entry for FAM131C (GeneID 348487), technical replicate 1 under “viability, normalised (%)”: 79.4 (active)
FAM131C (GeneID 348487), technical replicate 2, viability, normalised (%) → 91.7
Under “viability, normalised (%)”, PRKAA2 (GeneID 5563), technical replicate 2 reads 79.4 (active)
For “viability, normalised (%)”, POU5F1B (GeneID 5462), technical replicate 1 has 65.3 (active)
Result for ESR1 (GeneID 2099), technical replicate 3 under “viability, normalised (%)”: 71.1 (active)

Continued.
| target | technical replicate | viability, normalised (%) |
| --- | --- | --- |
| PKD2L1 (GeneID 9033) | 1 | 59.7 (active) |
| PKD2L1 (GeneID 9033) | 2 | 69.9 (active) |
| PKD2L1 (GeneID 9033) | 3 | 61.4 (active) |
| BMI1 (GeneID 648) | 1 | 75.6 (active) |
| BMI1 (GeneID 648) | 2 | 87.4 |
| BMI1 (GeneID 648) | 3 | 81.9 |
| RRM2 (GeneID 6241) | 1 | 43 (active) |
| RRM2 (GeneID 6241) | 2 | 40.5 (active) |
| RRM2 (GeneID 6241) | 3 | 31.8 (active) |
| PMS2P3 (GeneID 5387) | 1 | 78.4 (active) |
| PMS2P3 (GeneID 5387) | 2 | 67.8 (active) |
| PMS2P3 (GeneID 5387) | 3 | 73.8 (active) |
| CTNNB1 (GeneID 1499) | 1 | 49.1 (active) |
| CTNNB1 (GeneID 1499) | 2 | 75.8 (active) |
| CTNNB1 (GeneID 1499) | 3 | 66.7 (active) |
| HK2 (GeneID 3099) | 1 | 63.2 (active) |
| HK2 (GeneID 3099) | 2 | 65.3 (active) |
| HK2 (GeneID 3099) | 3 | 67.4 (active) |
| PIAS2 (GeneID 9063) | 1 | 59.2 (active) |
| PIAS2 (GeneID 9063) | 2 | 65.6 (active) |
| PIAS2 (GeneID 9063) | 3 | 67.6 (active) |
| SMARCE1 (GeneID 6605) | 1 | 56.3 (active) |
| SMARCE1 (GeneID 6605) | 2 | 58.8 (active) |
| SMARCE1 (GeneID 6605) | 3 | 71.7 (active) |
| SOD2 (GeneID 6648) | 1 | 40.4 (active) |
| SOD2 (GeneID 6648) | 2 | 44.4 (active) |
| SOD2 (GeneID 6648) | 3 | 51.5 (active) |
| GLI1 (GeneID 2735) | 1 | 62.2 (active) |
| GLI1 (GeneID 2735) | 2 | 65.4 (active) |
| GLI1 (GeneID 2735) | 3 | 73.1 (active) |
| GTF2H5 (GeneID 404672) | 1 | 71.3 (active) |
| GTF2H5 (GeneID 404672) | 2 | 69.3 (active) |
| GTF2H5 (GeneID 404672) | 3 | 76 (active) |
